Assay results taken from PMC10441990.
These are yes or no findings as the source states them, for the method shown. Binding seen in cells or lysates may run through a third protein.

The chains behind the UniProt entries cited, without tags or fusion partners.
UniProt P08659: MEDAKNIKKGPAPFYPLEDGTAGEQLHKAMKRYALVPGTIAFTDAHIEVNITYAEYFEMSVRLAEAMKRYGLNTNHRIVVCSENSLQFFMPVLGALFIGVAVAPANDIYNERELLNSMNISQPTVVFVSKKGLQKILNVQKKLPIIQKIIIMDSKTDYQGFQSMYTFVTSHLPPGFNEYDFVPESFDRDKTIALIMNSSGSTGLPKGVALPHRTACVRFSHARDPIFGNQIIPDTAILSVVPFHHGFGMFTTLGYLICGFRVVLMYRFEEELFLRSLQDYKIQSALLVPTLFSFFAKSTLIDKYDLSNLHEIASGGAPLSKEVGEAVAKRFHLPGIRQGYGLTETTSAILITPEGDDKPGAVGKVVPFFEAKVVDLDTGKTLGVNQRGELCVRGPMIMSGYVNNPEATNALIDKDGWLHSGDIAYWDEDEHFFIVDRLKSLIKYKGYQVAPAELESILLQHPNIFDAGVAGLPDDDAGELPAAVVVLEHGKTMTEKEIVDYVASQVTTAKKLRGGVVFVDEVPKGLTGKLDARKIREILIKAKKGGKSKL
UniProt P68559: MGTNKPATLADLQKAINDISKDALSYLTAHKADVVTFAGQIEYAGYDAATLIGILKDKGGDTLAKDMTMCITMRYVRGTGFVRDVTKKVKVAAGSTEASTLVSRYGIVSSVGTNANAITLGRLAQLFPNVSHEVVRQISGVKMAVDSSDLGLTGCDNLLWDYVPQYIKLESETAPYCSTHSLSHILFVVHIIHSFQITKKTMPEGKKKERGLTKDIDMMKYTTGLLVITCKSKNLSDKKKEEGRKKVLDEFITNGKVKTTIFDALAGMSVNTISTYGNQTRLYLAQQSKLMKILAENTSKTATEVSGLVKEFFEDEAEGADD

Assays:
[1] = target: luciferase (Luc), control of the co-IP [luciferase: P08659]; experiment: co-IP; tagged proteins transiently co-expressed in N. benthamiana leaves, immunoprecipitation with an anti-GFP antibody, western blot with anti-HA, anti-Flag and anti-GFP
[2] = target: RSV CP-GFP (rice stripe virus coat protein fused to GFP) (rice stripe virus) (UniProt P68559); experiment: as above

Substance | binding [1] | binding [2]
RSV CP-HA (from UniProt P68559 1-322) | no binding | 
luciferase (Luc), control of the co-IP (from UniProt P08659 1-550) |  | no binding
